PubChem BioAssay AID652272 – Drosophila RNAi Screening Center | 2013
The screen tested about 21,000 reagents; shown is an unselected part of those with a known target gene and a result. In the full data, 503 (2.4%) are marked active. 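Raw plate light values, not normalised; calls rest on replicate z-scores that were not deposited; hits include reporter decreases as well as increases.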 Entries without a mark were called inactive. Not stated in the record: the amount of reagent, the time to read-out.

Test: 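Genome-wide knock-down search for components of Hedgehog signalling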 (primary screen)
Cells: Drosophila clone 8 (Cl8) cells
Reagents: long dsRNA against Drosophila genes
Measured: 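Firefly light from a Hedgehog-responsive ptc promoter reporter and Renilla reference light, both read on a plate reader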
Direction: firefly Hh reporter signal: higher = more ptc reporter light; Renilla reference signal: higher = more Renilla control light
Active means: 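Called a hit if the two-replicate mean z-score lies below -2 or above +3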
Meaning of the calls: active = hit: reporter lowered or raised; inactive = not a hit

gene	dsRNA	firefly Hh reporter signal, replicate 1	firefly Hh reporter signal, replicate 2	firefly Hh reporter signal, replicate 3	Renilla reference signal, replicate 1	Renilla reference signal, replicate 2
bru3 (GeneID 39527)	DRSC09280	7.53e5	2.91e5	1.44e5	7021	5043
bru3 (GeneID 39527)	DRSC09291	2.27e5			4672	
bru3 (GeneID 39527)	DRSC09292	3.18e5			5728	
bru3 (GeneID 39527)	DRSC09687	1.45e5	1.11e5		5885	3850
bru3 (GeneID 39527)	DRSC09887	78256	30906	54583	3712	3351
mrn (GeneID 39688)	DRSC10913	72529	48962		2790	1924
Srpk79D (GeneID 40461)	DRSC11668	1.21e5	1.15e5		5825	4533
Srpk79D (GeneID 40461)	DRSC11856	84210	1.22e5		2133	3458
Ice1 (GeneID 37701)	DRSC04191	52112	40160		1449	3961
lap (GeneID 40863)	DRSC12628	1.08e5	83644		4762	3144
DIP-gamma (GeneID 43417)	DRSC14873	93251	1.85e5		1528	4326
UQCR-6.4 (GeneID 36991)	DRSC06454	75178	38854		2072	2714
St1 (GeneID 37742)	DRSC04504	1.10e5	84135		4240	3368
Gat (GeneID 43805)	DRSC17144	53792	1.62e5		1505	6136
mRpL2 (GeneID 39253)	DRSC10896	39462	36388	35802	4807	2528
zuc (GeneID 34609)	DRSC02160	1.14e5	91232		4897	4005
Cyp4g1 (GeneID 30986)	DRSC18459	87060	78209		2119	2583
Xrp1 (GeneID 42267)	DRSC15282	2.46e5	42160		15248	1824
Xrp1 (GeneID 42267)	DRSC15283	5.31e5	1.34e5		22689	3491
Adck5 (GeneID 39260)	DRSC10890	37207	50861	72786	4471	5521
CG7443 (GeneID 40992)	DRSC16244	1.01e5	1.76e5		4346	4744
Bub1 (GeneID 33758)	DRSC02357	35944	1.18e5		2480	4709
CG6972 (GeneID 42684)	DRSC16159	5.57e5	1.12e5		27907	3639

Laid out differently: results already given
gene | dsRNA | firefly Hh reporter signal, replicate 1 | firefly Hh reporter signal, replicate 2 | firefly Hh reporter signal, replicate 3 | Renilla reference signal, replicate 1 | Renilla reference signal, replicate 2
bru3 (GeneID 39527) | DRSC09280 | 7.53e5 | 2.91e5 | 1.44e5 | 7021 | 5043
bru3 (GeneID 39527) | DRSC09291 | 2.27e5 | – | – | 4672 | –
bru3 (GeneID 39527) | DRSC09292 | 3.18e5 | – | – | 5728 | –
bru3 (GeneID 39527) | DRSC09687 | 1.45e5 | 1.11e5 | – | 5885 | 3850
